# Experimental data as given in patent US11737973B2, “Microneedle percutaneous patch containing donepezil” (RAPHAS CO., LTD., priority 2017, dated 2023).
# Structures can show the parent of a compound that is named as a salt.
# Experiment: Donepezil PK profile of microneedle patch
# Conditions: rat, in vivo, po; male SD rats, serum, LC/MS/MS
smiles,measurement,value
COc1cc2c(cc1OC)C(=O)C(CC1CCN(Cc3ccccc3)CC1)C2 (centres unmarked) [donepezil hydrochloride],AUC,815 ± 163 ng·h/mL
same,Cmax,90.9 ± 27.9 ng/mL
